No constants are given. Whether binding was seen depends on the method and setting. For some assays here: Binding can be weak; no strength is given.
Key:
[1] = target: His-SUMO_Glp (Corynebacterium glutamicum ATCC13032); test: BLI; His-SUMO_Glp variants immobilised on Ni-NTA biosensors; FtsZ 10 μM in polymerization buffer (25 mM Pipes pH 6.9, 100 mM KCl, 10 mM MgCl2), pre-incubated with or without 1 mM GTP; 25 °C; both purified
[2] = target: His-SUMO_GlpΔloop (Corynebacterium glutamicum ATCC13032); test: as above

B1: FtsZ (purified, in solution) (protein, UniProt P94337 1-442)
chain: MTSPNNYLAKIKVVGVGGGGVNAVNRMIEEGLKGVEFIAVNTDSQALMFSDADVKLDIGREATRGLGAGANPEVGRASAEDHKNEIEETIKGADMVFVTAGEGGGTGTGAAPVVAGIAKKMGALTIGVVTKPFEFEGRRRTRQAEEGIAALKEVCDTLIVIPNDRLLELGDANLSIMEAFRAADEVLHNGVQGITNLITIPGVINVDFADVRSVMSEAGSALMGVGSARGDNRVVSATEQAINSPLLEATMDGATGVLLSFAGGSDLGLMEVNAAASMVRERSDEDVNLIFGTIIDDNLGDEVRVTVIATGFDAARASAAENRRAGISAAPAAEPVQQQVPTTNATLPPEKESIFGGAREENDPYLSRSAGARHRIEETRSGGGLFTTGNDRDYRRDERREDHRDERRDERRDDRSYDRRDDRRDDRRDDRGDDLDVPSFLQ
B1 was tested, and the binding [1] was “binds” and the binding [2] was “no binding (tested: 10 μM)”.

Reference: article PMC10522489, “Eukaryotic-like gephyrin and cognate membrane receptor coordinate corynebacterial cell division and polar elongation” (Nature Microbiology, 2023)
